System: IgG antibody in serum
Experiment: Detection of human cancer: ELISA of serum IgG reacting with the immobilized polypeptide
Format: binding
Settings: average

| Molecule | absorbance at 450 nm (healthy individuals) | absorbance at 450 nm (17 malignant breast cancer patients) |
| --- | --- | --- |
| egg white albumin: positive control immobilized on the solid phase at 50 μg/ml (protein) GSIGAASMEFCFDVFKELKVHHANENIFYCPIAIMSALAMVYLGAKDSTRTQINKVVRFDKLPGFGDSIEAQCGTSVNVHSSLRDILNQITKPNDVYSFSLASRLYAEERYPILPEYLQCVKELYRGGLEPINFQTAADQARELINSWVESQTNGIIRNVLQPSSVDSQTAMVLVNAIVFKGLWEKAFKDEDTQAMPFRVTEQESKPVQMMYQIGLFRVASMASEKMKILELPFASGTMSMLVLLPDEVSGLEQLESIINFEKLTEWTSSNVMEERKIKVYLPRMKMEEKYNLTSVLMAMGITDVFSSSANLSGISSAESLKISQAVHAAHAEINEAGREVVGSAEAGVDAASVSEEFRADHPFLFCIKHIATNAVLFFGRCVSP | 0.45 | – |
| human-derived cancer antigen protein: recombinant human CD179b protein, the amino acid sequence shown in SEQ ID NO:3 (protein, listed as Homo sapiens) LLRPTAASQSRALGPGAPGGSSRSSLRSRWGRFLLQRGSWTGPRCWPRGFQSKHNSVTHVFGSGTQLTVLSQPKATPSVTLFPPSSEELQANKATLVCLMNDFYPGILTVTWKADGTPITQGVEMTTPSKQSNNKYAASSYLSLTPEQWRSRRSYSCQVMHEGSTVEKTVAPAECS | 0 | 0.28 |
